Patent US4992257A, “Dihydroporphyrins and method of treating tumors” (Efamol Holdings PLC, priority 1988, dated 1991)
Some of these results come from one statement about several compounds together. Some ranges recur; such a range may be that of the whole group of compounds.

Assay: Longest wavelength absorption peak in the red in fetal calf serum
Assay type: physicochemical
Conditions: in solutions of sensitiser in fetal calf serum
Procedure: the method of testing is that the PC6 plasma cell tumour, obtained initially from the Chester Beatty Research Institute, was grown by inoculating 0.3-0.6×10^6 cells subcutaneously in female BALB/c mice. It was used about two weeks later, when it was […] in its longest diameter and […] deep. Sensitisers were injected in dimethyl sulphoxide intra-peritoneally (2.5 ul g^-1) and, twenty four hours later, skin over the tumours was depilated, the mice anaesthetised and tumours exposed to 10 J cm^-2 light. Wavelengths for illumination were the longest wavelength absorption peaks in the red in solutions of sensitiser in fetal calf serum, and were 652-653 nm for the compounds of Examples 1 to 3 and 741 nm for the compound of Example 4. The light source was a copper vapour laser with an output of 10 to 12 watts (Cu 10 laser, Oxford Lasers Ltd) pumping a D2 10K dye laser (Oxford Lasers Ltd). The dye was rhodamine 640 (Applied Photophysics Ltd) for illumination at 652-653 nm and LDS-722 for illumination at 741 nm. Light intensity at the tumour surface was kept below 0.3 W cm^-2, where thermal effects were undetectable.

Row | Structure (SMILES) | longest wavelength absorption peak in the red
1 | Oc1ccc(-c2c3nc(c(-c4ccc(O)cc4)c4ccc([nH]4)c(-c4ccc(O)cc4)c4nc(c(-c5ccc(O)cc5)c5ccc2[nH]5)CC4)C=C3)cc1 [Example 1, 2,3-dihydro-5,10,15,20-tetra(p-hydroxyphenyl) porphyrin] | 652-653 nm
2 | Oc1ccccc1-c1c2nc(c(-c3ccccc3O)c3ccc([nH]3)c(-c3ccccc3O)c3nc(c(-c4ccccc4O)c4[nH]c1CC4)C=C3)C=C2 [Example 3, 2,3-dihydro-5,10,15,20-tetra (o-hydroxyphenyl) porphyrin] | 652-653 nm
3 | Oc1cccc(-c2c3nc(c(-c4cccc(O)c4)c4ccc([nH]4)c(-c4cccc(O)c4)c4nc(c(-c5cccc(O)c5)c5[nH]c2CC5)C=C4)C=C3)c1 [Example 2, 2,3-dihydro-5,10,15,20-tetra(m-hydroxyphenyl) porphyrin] | 652-653 nm
